{"sequences": {"note": "Protein sequences, listed by entry. Tags and fused reporters are not part of them. Lines headed by an entry give the natural chain unless they say otherwise; changes in a name come on top.", "UniProt P34932": "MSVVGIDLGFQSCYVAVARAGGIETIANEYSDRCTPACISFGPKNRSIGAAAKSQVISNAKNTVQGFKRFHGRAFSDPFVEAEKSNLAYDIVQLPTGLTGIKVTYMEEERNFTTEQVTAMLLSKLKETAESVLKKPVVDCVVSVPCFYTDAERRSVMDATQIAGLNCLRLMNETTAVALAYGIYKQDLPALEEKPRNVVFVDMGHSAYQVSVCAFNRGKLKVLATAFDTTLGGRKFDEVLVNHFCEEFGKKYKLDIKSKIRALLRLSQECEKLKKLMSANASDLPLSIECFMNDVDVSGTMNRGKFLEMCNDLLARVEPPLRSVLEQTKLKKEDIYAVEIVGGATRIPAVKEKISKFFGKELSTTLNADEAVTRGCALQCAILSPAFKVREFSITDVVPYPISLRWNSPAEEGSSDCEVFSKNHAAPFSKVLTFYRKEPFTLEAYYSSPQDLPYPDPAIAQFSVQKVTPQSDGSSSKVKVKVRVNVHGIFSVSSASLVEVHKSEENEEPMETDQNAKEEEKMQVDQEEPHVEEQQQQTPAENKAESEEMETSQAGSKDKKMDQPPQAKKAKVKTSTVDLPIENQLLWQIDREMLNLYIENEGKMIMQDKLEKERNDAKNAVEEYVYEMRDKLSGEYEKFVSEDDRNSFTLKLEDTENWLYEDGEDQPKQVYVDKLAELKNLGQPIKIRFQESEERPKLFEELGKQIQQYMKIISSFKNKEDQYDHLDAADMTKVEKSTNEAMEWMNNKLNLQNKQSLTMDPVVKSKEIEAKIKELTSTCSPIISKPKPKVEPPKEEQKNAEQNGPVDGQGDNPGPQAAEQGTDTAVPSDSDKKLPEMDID", "UniProt P22626": "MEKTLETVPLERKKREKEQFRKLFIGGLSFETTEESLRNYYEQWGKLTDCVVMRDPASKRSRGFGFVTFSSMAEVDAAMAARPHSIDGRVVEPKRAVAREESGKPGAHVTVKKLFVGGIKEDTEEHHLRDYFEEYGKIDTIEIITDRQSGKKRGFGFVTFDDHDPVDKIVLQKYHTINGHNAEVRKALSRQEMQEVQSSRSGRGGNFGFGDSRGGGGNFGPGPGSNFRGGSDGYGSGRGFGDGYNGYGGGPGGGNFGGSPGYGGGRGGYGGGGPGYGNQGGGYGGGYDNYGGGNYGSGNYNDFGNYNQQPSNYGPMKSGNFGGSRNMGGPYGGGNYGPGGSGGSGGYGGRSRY", "UniProt Q1KMD3": "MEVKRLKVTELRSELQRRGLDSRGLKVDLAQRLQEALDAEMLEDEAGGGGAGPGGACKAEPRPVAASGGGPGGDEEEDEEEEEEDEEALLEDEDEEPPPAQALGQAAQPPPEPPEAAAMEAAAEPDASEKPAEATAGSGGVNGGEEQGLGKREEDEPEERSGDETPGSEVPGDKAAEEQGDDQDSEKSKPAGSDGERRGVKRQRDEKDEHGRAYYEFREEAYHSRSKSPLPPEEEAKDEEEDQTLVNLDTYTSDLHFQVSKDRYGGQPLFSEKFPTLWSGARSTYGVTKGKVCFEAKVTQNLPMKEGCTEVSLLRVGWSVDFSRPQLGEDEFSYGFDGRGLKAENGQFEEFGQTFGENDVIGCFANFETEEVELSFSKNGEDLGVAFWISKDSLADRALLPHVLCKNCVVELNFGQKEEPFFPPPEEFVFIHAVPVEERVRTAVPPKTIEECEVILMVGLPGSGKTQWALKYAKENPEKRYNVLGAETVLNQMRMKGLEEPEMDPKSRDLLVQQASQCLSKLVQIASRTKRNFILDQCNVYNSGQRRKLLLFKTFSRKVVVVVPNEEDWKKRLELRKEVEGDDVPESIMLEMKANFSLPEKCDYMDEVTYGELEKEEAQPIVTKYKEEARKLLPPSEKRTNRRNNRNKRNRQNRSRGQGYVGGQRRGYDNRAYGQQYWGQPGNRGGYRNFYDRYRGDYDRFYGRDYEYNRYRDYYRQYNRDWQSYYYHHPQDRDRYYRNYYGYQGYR", "UniProt Q0VDF9": "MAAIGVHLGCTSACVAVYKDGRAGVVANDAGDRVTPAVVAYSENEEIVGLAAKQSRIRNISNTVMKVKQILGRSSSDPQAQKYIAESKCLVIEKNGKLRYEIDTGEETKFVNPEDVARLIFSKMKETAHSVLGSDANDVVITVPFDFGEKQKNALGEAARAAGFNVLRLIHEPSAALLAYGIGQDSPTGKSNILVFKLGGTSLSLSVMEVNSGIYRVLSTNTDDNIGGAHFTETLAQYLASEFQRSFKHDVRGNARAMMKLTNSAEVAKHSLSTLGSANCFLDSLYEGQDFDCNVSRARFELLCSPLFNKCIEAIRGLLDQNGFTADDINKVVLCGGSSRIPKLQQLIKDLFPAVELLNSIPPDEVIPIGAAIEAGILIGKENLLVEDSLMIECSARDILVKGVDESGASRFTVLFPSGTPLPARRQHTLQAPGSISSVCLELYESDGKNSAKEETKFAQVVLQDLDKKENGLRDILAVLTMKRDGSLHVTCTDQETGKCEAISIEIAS", "UniProt P14866": "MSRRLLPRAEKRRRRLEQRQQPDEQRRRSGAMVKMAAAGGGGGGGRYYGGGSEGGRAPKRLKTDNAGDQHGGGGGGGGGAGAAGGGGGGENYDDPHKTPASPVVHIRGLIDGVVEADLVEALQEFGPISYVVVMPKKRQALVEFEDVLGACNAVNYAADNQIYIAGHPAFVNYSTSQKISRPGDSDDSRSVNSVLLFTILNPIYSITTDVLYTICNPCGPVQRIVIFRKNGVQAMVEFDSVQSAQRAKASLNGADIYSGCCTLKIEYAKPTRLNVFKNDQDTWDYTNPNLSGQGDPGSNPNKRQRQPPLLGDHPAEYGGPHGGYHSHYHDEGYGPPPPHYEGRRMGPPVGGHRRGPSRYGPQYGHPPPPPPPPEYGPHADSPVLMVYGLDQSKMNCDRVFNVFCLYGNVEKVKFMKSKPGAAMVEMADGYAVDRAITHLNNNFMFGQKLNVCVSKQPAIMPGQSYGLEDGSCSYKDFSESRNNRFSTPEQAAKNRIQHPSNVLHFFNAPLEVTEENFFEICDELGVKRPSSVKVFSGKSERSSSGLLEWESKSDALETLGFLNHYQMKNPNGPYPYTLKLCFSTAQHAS", "UniProt Q92598": "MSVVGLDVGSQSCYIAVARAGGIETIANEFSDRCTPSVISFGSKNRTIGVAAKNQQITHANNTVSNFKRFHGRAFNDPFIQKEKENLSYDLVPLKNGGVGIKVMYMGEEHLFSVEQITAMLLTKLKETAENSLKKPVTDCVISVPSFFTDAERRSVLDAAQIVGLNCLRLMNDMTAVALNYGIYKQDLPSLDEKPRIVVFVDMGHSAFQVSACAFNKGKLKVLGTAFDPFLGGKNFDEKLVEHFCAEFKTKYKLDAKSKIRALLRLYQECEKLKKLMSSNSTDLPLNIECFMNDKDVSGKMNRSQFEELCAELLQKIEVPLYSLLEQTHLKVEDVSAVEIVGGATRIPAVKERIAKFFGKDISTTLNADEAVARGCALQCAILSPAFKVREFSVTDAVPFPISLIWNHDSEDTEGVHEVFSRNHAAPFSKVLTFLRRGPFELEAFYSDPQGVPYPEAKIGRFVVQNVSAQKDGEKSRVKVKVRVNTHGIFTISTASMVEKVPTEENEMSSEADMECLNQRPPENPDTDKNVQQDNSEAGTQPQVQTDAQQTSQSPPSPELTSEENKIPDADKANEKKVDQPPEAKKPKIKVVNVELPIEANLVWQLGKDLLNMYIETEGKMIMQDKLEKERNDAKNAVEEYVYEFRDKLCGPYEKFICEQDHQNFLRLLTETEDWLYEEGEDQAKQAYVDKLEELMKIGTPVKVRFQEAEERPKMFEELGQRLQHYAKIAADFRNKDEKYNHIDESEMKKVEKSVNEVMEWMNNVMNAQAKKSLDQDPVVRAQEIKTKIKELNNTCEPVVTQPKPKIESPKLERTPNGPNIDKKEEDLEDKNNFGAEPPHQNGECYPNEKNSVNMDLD", "UniProt P55795": "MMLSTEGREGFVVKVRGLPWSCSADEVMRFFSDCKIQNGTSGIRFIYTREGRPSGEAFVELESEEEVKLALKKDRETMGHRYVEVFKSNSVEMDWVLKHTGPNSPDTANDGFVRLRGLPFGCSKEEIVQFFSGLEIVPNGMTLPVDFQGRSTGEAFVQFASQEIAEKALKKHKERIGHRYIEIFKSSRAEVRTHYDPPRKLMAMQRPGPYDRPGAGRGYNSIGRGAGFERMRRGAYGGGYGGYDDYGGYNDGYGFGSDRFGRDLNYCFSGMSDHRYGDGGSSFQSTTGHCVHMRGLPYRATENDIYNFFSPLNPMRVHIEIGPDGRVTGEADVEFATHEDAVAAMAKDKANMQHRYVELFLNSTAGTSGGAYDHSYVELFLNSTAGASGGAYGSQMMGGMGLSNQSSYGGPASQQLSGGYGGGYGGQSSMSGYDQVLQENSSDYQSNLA", "UniProt Q9BUJ2": "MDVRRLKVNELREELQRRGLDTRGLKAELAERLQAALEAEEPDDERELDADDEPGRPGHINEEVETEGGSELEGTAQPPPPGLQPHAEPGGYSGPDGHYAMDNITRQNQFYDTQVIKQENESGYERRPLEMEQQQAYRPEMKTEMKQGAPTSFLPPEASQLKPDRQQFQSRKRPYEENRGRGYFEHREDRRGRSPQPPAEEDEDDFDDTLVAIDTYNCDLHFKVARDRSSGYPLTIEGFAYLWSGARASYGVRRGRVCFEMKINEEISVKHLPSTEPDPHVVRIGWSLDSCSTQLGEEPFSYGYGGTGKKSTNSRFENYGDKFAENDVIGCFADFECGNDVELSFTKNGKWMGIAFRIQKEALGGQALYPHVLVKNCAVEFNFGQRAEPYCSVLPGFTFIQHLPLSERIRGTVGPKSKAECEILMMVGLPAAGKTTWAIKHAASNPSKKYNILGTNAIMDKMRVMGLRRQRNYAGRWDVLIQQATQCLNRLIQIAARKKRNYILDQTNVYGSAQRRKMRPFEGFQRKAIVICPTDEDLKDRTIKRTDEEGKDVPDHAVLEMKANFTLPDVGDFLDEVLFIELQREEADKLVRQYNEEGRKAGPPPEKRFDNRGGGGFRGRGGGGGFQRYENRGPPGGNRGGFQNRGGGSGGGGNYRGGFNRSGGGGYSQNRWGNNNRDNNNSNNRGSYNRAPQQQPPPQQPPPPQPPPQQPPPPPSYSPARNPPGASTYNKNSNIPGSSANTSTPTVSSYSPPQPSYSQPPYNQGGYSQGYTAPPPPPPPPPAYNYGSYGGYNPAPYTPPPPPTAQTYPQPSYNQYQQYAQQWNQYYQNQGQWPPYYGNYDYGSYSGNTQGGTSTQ", "UniProt Q00839, whole entry, looked up": "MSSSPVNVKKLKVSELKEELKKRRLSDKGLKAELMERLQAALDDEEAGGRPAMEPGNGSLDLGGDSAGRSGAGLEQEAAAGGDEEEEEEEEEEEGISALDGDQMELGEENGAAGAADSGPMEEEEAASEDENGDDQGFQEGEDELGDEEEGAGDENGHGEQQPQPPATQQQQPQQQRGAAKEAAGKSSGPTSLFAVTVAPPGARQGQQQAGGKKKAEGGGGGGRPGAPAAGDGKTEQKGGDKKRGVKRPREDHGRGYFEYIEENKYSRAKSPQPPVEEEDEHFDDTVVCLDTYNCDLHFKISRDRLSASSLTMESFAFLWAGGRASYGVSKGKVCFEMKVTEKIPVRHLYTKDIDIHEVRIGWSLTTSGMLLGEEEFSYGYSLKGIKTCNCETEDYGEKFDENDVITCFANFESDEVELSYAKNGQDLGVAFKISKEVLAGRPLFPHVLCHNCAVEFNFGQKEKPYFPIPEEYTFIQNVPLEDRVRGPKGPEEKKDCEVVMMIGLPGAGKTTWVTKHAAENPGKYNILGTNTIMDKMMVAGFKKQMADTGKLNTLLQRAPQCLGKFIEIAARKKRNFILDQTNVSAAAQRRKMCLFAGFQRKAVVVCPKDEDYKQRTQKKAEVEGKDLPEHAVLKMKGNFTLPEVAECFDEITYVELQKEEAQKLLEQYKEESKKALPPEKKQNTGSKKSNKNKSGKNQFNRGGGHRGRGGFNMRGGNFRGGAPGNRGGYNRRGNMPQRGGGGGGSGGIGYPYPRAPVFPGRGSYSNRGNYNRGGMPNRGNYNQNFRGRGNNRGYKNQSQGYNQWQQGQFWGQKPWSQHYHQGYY", "UniProt P09651": "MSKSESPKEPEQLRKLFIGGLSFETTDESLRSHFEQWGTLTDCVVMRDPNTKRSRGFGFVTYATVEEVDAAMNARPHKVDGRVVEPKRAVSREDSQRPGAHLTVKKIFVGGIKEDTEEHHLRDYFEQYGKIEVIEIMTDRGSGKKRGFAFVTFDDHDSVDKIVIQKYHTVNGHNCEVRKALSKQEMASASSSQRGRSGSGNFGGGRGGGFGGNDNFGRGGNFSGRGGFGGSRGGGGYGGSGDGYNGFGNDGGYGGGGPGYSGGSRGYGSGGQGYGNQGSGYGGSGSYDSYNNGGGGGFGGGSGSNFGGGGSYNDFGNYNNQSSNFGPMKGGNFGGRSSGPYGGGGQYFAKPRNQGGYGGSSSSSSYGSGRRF"}, "source": "the supplement of paper PMC12067093", "about": "“Discovery and optimisation of a covalent ligand for TRIM25 and its application to targeted protein ubiquitination” (Chemical Science, 2025)", "compound": "CC1Cc2ccccc2N1C(=O)C1CCCN(C1)C(=O)CCl (mixture of isomers) [TRIM25 ligand 11 (diastereomer mixture)]", "assay": "probe-labelled cysteine peptide fold change vs DMSO (competition) (log2 fold change); higher = less target engagement (more negative = stronger competition)", "details": "THP-1, incubation time: 4 h", "note": "This is one part of the list.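 Note: competitive chemoproteomic profiling in live THP-1 cells with an iodoacetamide desthiobiotin (IA-DTB) probe, comparing probe-labelled peptide intensities in compound-treated cells against DMSO-treated controls.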"}
{"target": "HSPA4_P34932_779_ELTSTCSPIISKPK (UniProt P34932)", "values": [{"measurement": "probe-labelled cysteine peptide fold change", "setting": "10 µM", "value": -0.26}, {"measurement": "probe-labelled cysteine peptide fold change", "setting": "50 µM", "value": -0.334}]}
{"target": "HSPA4_P34932_245_KFDEVLVNHFCEEFGKK (UniProt P34932)", "values": [{"measurement": "probe-labelled cysteine peptide fold change", "setting": "10 µM", "value": -0.437}, {"measurement": "probe-labelled cysteine peptide fold change", "setting": "50 µM", "value": -0.192}]}
{"target": "HSPA2_P54652_606_VCNPIISK (UniProt P54652)", "values": [{"measurement": "probe-labelled cysteine peptide fold change", "setting": "10 µM", "value": -0.0994}, {"measurement": "probe-labelled cysteine peptide fold change", "setting": "50 µM", "value": -0.035}]}
{"target": "HSP90AA1_P07900_598_LVTSPCCIVTSTYGWTANMER (UniProt P07900)", "values": [{"measurement": "probe-labelled cysteine peptide fold change", "setting": "10 µM", "value": -0.043}, {"measurement": "probe-labelled cysteine peptide fold change", "setting": "50 µM", "value": 0.15}]}
{"target": "HNRNPA2B1_P22626_50_LTDCVVMRDPASKR (UniProt P22626)", "values": [{"measurement": "probe-labelled cysteine peptide fold change", "setting": "10 µM", "value": -0.332}, {"measurement": "probe-labelled cysteine peptide fold change", "setting": "50 µM", "value": -0.307}]}
{"target": "HSP90AA1_P07900_597+598_LVTSPCCIVTSTYGWTANMER (UniProt P07900)", "values": [{"measurement": "probe-labelled cysteine peptide fold change", "setting": "10 µM", "value": 0.0632}, {"measurement": "probe-labelled cysteine peptide fold change", "setting": "50 µM", "value": 0.0503}]}
{"target": "HNRNPUL2_Q1KMD3_452_TIEECEVILMVGLPGSGK (UniProt Q1KMD3)", "values": [{"measurement": "probe-labelled cysteine peptide fold change", "setting": "10 µM", "value": -0.0599}, {"measurement": "probe-labelled cysteine peptide fold change", "setting": "50 µM", "value": 0.0666}]}
{"target": "HPS5_Q9UPZ3_775_STSGHVDHTLQQYSPEILACQFLK (UniProt Q9UPZ3)", "values": [{"measurement": "probe-labelled cysteine peptide fold change", "setting": "10 µM", "value": 0.0447}, {"measurement": "probe-labelled cysteine peptide fold change", "setting": "50 µM", "value": 0.00925}]}
{"target": "HSPA14_Q0VDF9_304_FELLCSPLFNK (UniProt Q0VDF9)", "values": [{"measurement": "probe-labelled cysteine peptide fold change", "setting": "10 µM", "value": 0.0661}, {"measurement": "probe-labelled cysteine peptide fold change", "setting": "50 µM", "value": 0.00935}]}
{"target": "HPS3_Q969F9_831_TSEDLINACSHYGLIYPWVHVVISSDSLADK (UniProt Q969F9)", "values": [{"measurement": "probe-labelled cysteine peptide fold change", "setting": "10 µM", "value": -0.0328}, {"measurement": "probe-labelled cysteine peptide fold change", "setting": "50 µM", "value": 0.158}]}
{"target": "HTATSF1_O43719_328_HPDGVASVSFRDPEEADYCIQTLDGR (UniProt O43719)", "values": [{"measurement": "probe-labelled cysteine peptide fold change", "setting": "10 µM", "value": 0.166}, {"measurement": "probe-labelled cysteine peptide fold change", "setting": "50 µM", "value": 0.0493}]}
{"target": "HNRNPL_P14866_452_LNVCVSK (UniProt P14866)", "values": [{"measurement": "probe-labelled cysteine peptide fold change", "setting": "10 µM", "value": -0.0403}, {"measurement": "probe-labelled cysteine peptide fold change", "setting": "50 µM", "value": 0.0431}]}
{"target": "HTATSF1_O43719_328_LLLFDRHPDGVASVSFRDPEEADYCIQTLDGR (UniProt O43719)", "values": [{"measurement": "probe-labelled cysteine peptide fold change", "setting": "10 µM", "value": 0.141}, {"measurement": "probe-labelled cysteine peptide fold change", "setting": "50 µM", "value": 0.0805}]}
{"target": "HSPH1_Q92598_796_ELNNTCEPVVTQPK (UniProt Q92598)", "values": [{"measurement": "probe-labelled cysteine peptide fold change", "setting": "10 µM", "value": -0.0538}, {"measurement": "probe-labelled cysteine peptide fold change", "setting": "50 µM", "value": 0.0693}]}
{"target": "HNRNPH2_P55795_22_GLPWSCSADEVMR (UniProt P55795)", "values": [{"measurement": "probe-labelled cysteine peptide fold change", "setting": "10 µM", "value": 0.194}, {"measurement": "probe-labelled cysteine peptide fold change", "setting": "50 µM", "value": -0.0503}]}
{"target": "HNRNPUL1_Q9BUJ2_391_AEPYCSVLPGFTFIQHLPLSER (UniProt Q9BUJ2)", "values": [{"measurement": "probe-labelled cysteine peptide fold change", "setting": "10 µM", "value": -0.0675}, {"measurement": "probe-labelled cysteine peptide fold change", "setting": "50 µM", "value": -0.191}]}
{"target": "HNRNPU_Q00839_389_TCNCETEDYGEK (UniProt Q00839)", "values": [{"measurement": "probe-labelled cysteine peptide fold change", "setting": "10 µM", "value": 0.184}, {"measurement": "probe-labelled cysteine peptide fold change", "setting": "50 µM", "value": 0.314}]}
{"target": "HSPA14_Q0VDF9_394_ENLLVEDSLMIECSAR (UniProt Q0VDF9)", "values": [{"measurement": "probe-labelled cysteine peptide fold change", "setting": "10 µM", "value": -0.368}, {"measurement": "probe-labelled cysteine peptide fold change", "setting": "50 µM", "value": -0.17}]}
{"target": "HSPH1_Q92598_167_SVLDAAQIVGLNCLR (UniProt Q92598)", "values": [{"measurement": "probe-labelled cysteine peptide fold change", "setting": "10 µM", "value": -0.0128}, {"measurement": "probe-labelled cysteine peptide fold change", "setting": "50 µM", "value": 0.0497}]}
{"target": "HNRNPA1_P09651_175_YHTVNGHNCEVR (UniProt P09651)", "values": [{"measurement": "probe-labelled cysteine peptide fold change", "setting": "10 µM", "value": 0.0508}, {"measurement": "probe-labelled cysteine peptide fold change", "setting": "50 µM", "value": -0.0151}]}
